Assay results taken from US20180134765A1.
Substitutions are numbered along the chain they refer to. Results are given in words; binding and its absence hold for the method and conditions named. Some entries that bind do so weakly or less than the wild type. For some assays here: Tags and fused reporters may be left off the sequences shown.

Protein sequences, listed by entry. Tags and fused reporters are not part of them. Residues count along the entry.
UniProt P22607, residues 23-375: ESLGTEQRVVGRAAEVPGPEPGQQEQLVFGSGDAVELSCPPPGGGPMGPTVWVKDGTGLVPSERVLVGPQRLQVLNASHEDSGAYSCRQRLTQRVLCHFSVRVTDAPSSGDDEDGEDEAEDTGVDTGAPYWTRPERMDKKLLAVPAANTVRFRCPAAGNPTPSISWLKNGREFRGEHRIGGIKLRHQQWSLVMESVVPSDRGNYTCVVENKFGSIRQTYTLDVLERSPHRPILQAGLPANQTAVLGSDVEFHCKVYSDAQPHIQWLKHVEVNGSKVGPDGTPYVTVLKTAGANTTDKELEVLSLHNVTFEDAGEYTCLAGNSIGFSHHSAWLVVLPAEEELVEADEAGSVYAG

B1: ULBP1-α3-iFv.2 (designed binder)
chain: EPHCLCYDFIITPKSRPEPQWCEVQGLVDERPFLHYDCVNHKAKAFASLGKKVNVTKTWEEQTETLRDVVDFLKGQLLDIQVENLIPIEPLTLQARMSCEHEAHGHGRGSWQFLFNGQKFLLFDSNNRKWTALHPGAKKMTEKWEKNRDVTMFFQKISLGDCKMWLEEFLMYWEQMLDPTKPPMVQVTRSEASGGSGDRVTITCRASQDVSTAVAWYQQKPGKAPKLLIYSASFLYSGVPSRFSGSGSGTDFTLTISSLQPEDFATYYCQQSYTTPPTFGQGTKVEIKGGSSRSSSSGGGGSGGGGEVQLVESGGGLVQPGGSLRLSCAASGFTFTSTGISWVRQAPGKGLEWVGRIYPTNGSTNYADSVKGRFTISADTSKNTAYLQMNSLRAEDTAVYYCARTYGIYDLYVDYTEYVMDYWGQGTLVTVSSGGSSRSSSSGGGGSGGGGDIQMTQSPSSLSASGGSGQITVTCRASGFYPWNITLSWRQDGVSLSHDTQQWGDVLPDGQGTYQTWVATRISQGEEQRFTCYMEHSGQHSTHPVPSGKGSHHHHHH
B2: ULBP3-α3-iFv.2 (designed binder)
chain: EPHSLWYNFTIIHLPRHGQQWCEVQSQVDQKNFLSYDCGSDKVLSMGHLEEQLYATDAWGKQLEMLREVGQRLRLELADTELEDFTPSGPLTLQVRMSCECEADGYIRGSWQFSFDGRKFLLFDSNNRKWTVVHAGARRMKEKWEKDSGLTTFFKMVSMRDCKSWLRDFLMHRKKRLEPTAPPMVQVTRSEASGGSGDRVTITCRASQDVSTAVAWYQQKPGKAPKLLIYSASFLYSGVPSRFSGSGSGTDFTLTISSLQPEDFATYYCQQSYTTPPTFGQGTKVEIKGGSSRSSSSGGGGSGGGGEVQLVESGGGLVQPGGSLRLSCAASGFTFTSTGISWVRQAPGKGLEWVGRIYPTNGSTNYADSVKGRFTISADTSKNTAYLQMNSLRAEDTAVYYCARTYGIYDLYVDYTEYVMDYWGQGTLVTVSSGGSSRSSSSGGGGSGGGGDIQMTQSPSSLSASGGSGQITVTCRASGFYPWNITLSWRQDGVSLSHDTQQWGDVLPDGQGTYQTWVATRISQGEEQRFTCYMEHSGQHSTHPVPSGKGSHHHHHH
B3: MICA-α3-iFv.1 (designed binder)
chain: EPHSLRYNLTVLSWDGSVQSGFLTEVHLDGQPFLRCDRQKCRAKPQGQWAEDVLGNKTWDRETRDLTGNGKDLRMTLAHIKDQKEGLHSLQEIRVCEIHEDNSTRSSQHFYYDGELFLSQNLETKEWTMPQSSRAQTLAMNVRNFLKEDAMKTKTHYHAMHADCLQELRRYLKSGVVLRRTVPPMVQVTRSEASGDRVTITCRASQDVSTAVAWYQQKPGKAPKLLIYSASFLYSGVPSRFSGSGSGTDFTLTISSLQPEDFATYYCQQSYTTPPTFGQGTKVEIKGGSSRSSSSGGGGSGGGGEVQLVESGGGLVQPGGSLRLSCAASGFTFTSTGISWVRQAPGKGLEWVGRIYPTNGSTNYADSVKGRFTISADTSKNTAYLQMNSLRAEDTAVYYCARTYGIYDLYVDYTEYVMDYWGQGTLVTVSSGGSSRSSSSGGGGSGGGGDIQMTQSPSSLSASGQITVTCRASGFYPWNITLSWRQDGVSLSHDTQQWGDVLPDGQGTYQTWVATRISQGEEQRFTCYMEHSGQHSTHPVPSGKGSHHHHHH
B4: α1-α2 variant 15 (ligand)
chain: EPHSLRYNLTVLSWDGSVQSGFLTEVHLDGQPFLRCDRQKCRAKPQGQWAEDVLGNKTWDRETRDLTGWGKDLRMTLAHIKDQKEGLHSLQEIRVCEIHEDNSTRSSQHFYYDGELFLSQNLETNEWTMPQSSRAQTLAMNVRNFLKEDAMETDTHYHAMRADCLQELRRYLKSGVVLRRTVPPMVQVTRSEASGGSGDRVTITCRASQDVSTAVAWYQQKPGKAPKLLIYSASFLYSGVPSRFSGSGSGTDFTLTISSLQPEDFATYYCQQSYTTPPTFGQGTKVEIKGGSSRSSSSGGGGSGGGGEVQLVESGGGLVQPGGSLRLSCAASGFTFTSTGISWVRQAPGKGLEWVGRIYPTNGSTNYADSVKGRFTISADTSKNTAYLQMNSLRAEDTAVYYCARTYGIYDLYVDYTEYVMDYWGQGTLVTVSSGGSSRSSSSGGGGSGGGGDIQMTQSPSSLSASGGSGQITVTCRASGFYPWNITLSWRQDGVSLSHDTQQWGDVLPDGQGTYQTWVATRISQGEEQRFTCYMEHSGQHSTHPVPSGKGSHHHHHH
B5: WED-MICA (ligand)
chain: B4 chain with N125K, R161H
B6: α1-α2 variant 16 (ligand)
chain: B4 chain with N125L
B7: α1-α2 variant 18 (ligand)
chain: B4 chain with S20P, G68L, N125L
B8: WT α1-α2 soluble MICA protein (Example 3) (ligand)
chain: B4 chain with W69N, N125K, E152K, D154K, R161H
B9: α1-α2 variant 17 (ligand)
chain: B4 chain with G68L, N125L
B10: ULBP4-α3-iFv.2 (designed binder)
chain: EPHSLCFNFTIKSLSRPGQPWCEAQVFLNKNLFLQYNSDNNMVKPLGLLGKKVYATSTWGELTQTLGEVGRDLRMLLCDIKPQIKTSDPSTLQVEMFCQREAERCTGASWQFATNGEKSLLFDAMNMTWTVINHEASKIKETWKKDRGLEKYFRKLSKGDCDHWLREFLGHWEAMPEPTVSPPMVQVTRSEASGGSGDRVTITCRASQDVSTAVAWYQQKPGKAPKLLIYSASFLYSGVPSRFSGSGSGTDFTLTISSLQPEDFATYYCQQSYTTPPTFGQGTKVEIKGGSSRSSSSGGGGSGGGGEVQLVESGGGLVQPGGSLRLSCAASGFTFTSTGISWVRQAPGKGLEWVGRIYPTNGSTNYADSVKGRFTISADTSKNTAYLQMNSLRAEDTAVYYCARTYGIYDLYVDYTEYVMDYWGQGTLVTVSSGGSSRSSSSGGGGSGGGGDIQMTQSPSSLSASGGSGQITVTCRASGFYPWNITLSWRQDGVSLSHDTQQWGDVLPDGQGTYQTWVATRISQGEEQRFTCYMEHSGQHSTHPVPSGKGSHHHHHH
B11: ULBP2-α3-iFv.2 (designed binder)
chain: EPHSLCYDITVIPKFRPGPRWCAVQGQVDEKTFLHYDCGNKTVTPVSPLGKKLNVTTAWKAQNPVLREVVDILTEQLRDIQLENYTPKEPLTLQARMSCEQKAEGHSSGSWQFSFDGQIFLLFDSEKRMWTTVHPGARKMKEKWENDKVVAMSFHYFSMGDCIGWLEDFLMGMDSTLEPSAGAPPMVQVTRSEASGGSGDRVTITCRASQDVSTAVAWYQQKPGKAPKLLIYSASFLYSGVPSRFSGSGSGTDFTLTISSLQPEDFATYYCQQSYTTPPTFGQGTKVEIKGGSSRSSSSGGGGSGGGGEVQLVESGGGLVQPGGSLRLSCAASGFTFTSTGISWVRQAPGKGLEWVGRIYPTNGSTNYADSVKGRFTISADTSKNTAYLQMNSLRAEDTAVYYCARTYGIYDLYVDYTEYVMDYWGQGTLVTVSSGGSSRSSSSGGGGSGGGGDIQMTQSPSSLSASGGSGQITVTCRASGFYPWNITLSWRQDGVSLSHDTQQWGDVLPDGQGTYQTWVATRISQGEEQRFTCYMEHSGQHSTHPVPSGKGSHHHHHH
B12: ULBP6-α3-iFv.2 (designed binder)
chain: B11 chain with R78L, F115I, I119T, V149D, F157I
B13: His-avitag-natural NKG2D (receptor)
chain: EPHHHHHHGLNDIFEAQKIEWHENSLFNQEVQIPLTESYCGPCPKNWICYKNNCYQFFDESKNWYESQASCMSQNASLLKVYSKEDQDLLKLVKSYHWMGLVHIPTNGSWQWEDGSILSPNLLTIIEMQKGDCALYASSFKGYIENCSTPNTYICMQRTV
modifications: biotin on the avitag sequence (BirA)

Key:
[1] = target: FGFR3 (plate-coated) (UniProt P22607); assay: ELISA on FGFR3-coated wells, detection with NKG2D-Fc
[2] = target: FGFR3 (plate-coated) (UniProt P22607); assay: ELISA on FGFR3-coated wells, detection with NKG2D-Fc and anti-Fc-HRP
[3] = target: FGFR3 (plate-coated) (UniProt P22607); assay: ELISA: FGFR3 coated at 2 ug/ml, protein titrated, bound protein detected with NKG2D-Fc and anti-Fc-HRP
[4] = target: T1, murine NKG2D-Fc (mouse) (UniProt O54709); assay: competition ELISA with murine NKG2D-Fc
T1 sequence (looked up): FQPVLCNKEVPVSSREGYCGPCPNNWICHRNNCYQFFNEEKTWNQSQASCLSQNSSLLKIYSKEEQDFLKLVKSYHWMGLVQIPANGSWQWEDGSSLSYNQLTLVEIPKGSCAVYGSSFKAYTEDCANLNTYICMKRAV

[5] = target: T1, murine NKG2D-Fc (mouse); assay: competition ELISA with mouse NKG2D-Fc on plate-coated MICA
[6] = target: T1, murine NKG2D-Fc (mouse); assay: competition ELISA: variant titrated against mouse NKG2D-Fc binding to plate-coated MICA (competitor), detected with anti-Fc-HRP
[7] = target: T1, murine NKG2D-Fc (mouse); assay: competition ELISA: protein titrated against mouse NKG2D-Fc binding to plate-coated MICA (competitor), detected with anti-Fc-HRP
[8] = target: MICA-Fc; assay: ELISA: ligand-Fc coated at 2 ug/ml, biotinylated NKG2D ectodomain titrated, streptavidin-HRP

| Binder | binding [1] | binding [2] | binding [3] | binding [4] | binding [5] | binding [6] | other results |
| --- | --- | --- | --- | --- | --- | --- | --- |
| B1 | binds | binds | binds |  |  |  |  |
| B2 | binds | binds | binds |  |  |  |  |
| B3 | binds | binds | binds |  |  |  |  |
| B4 |  |  |  | binds | binds | binds |  |
| B5 |  |  |  | binds |  |  | binding [7]: binds |
| B6 |  |  |  | binds | binds | binds |  |
| B7 |  |  |  | binds | binds | binds |  |
| B8 |  |  |  | binds |  |  | binding [7]: binds |
| B9 |  |  |  | binds | binds | binds |  |
| B10 | binds | binds | binds |  |  |  |  |
| B11 | binds | binds | binds |  |  |  |  |
| B12 | binds | binds | binds |  |  |  |  |
| B13 |  |  |  |  |  |  | binding [8]: binds |
